Experimental data from PMC12622967.

The chains behind the UniProt entries cited, without tags or fusion partners.
UniProt P52480: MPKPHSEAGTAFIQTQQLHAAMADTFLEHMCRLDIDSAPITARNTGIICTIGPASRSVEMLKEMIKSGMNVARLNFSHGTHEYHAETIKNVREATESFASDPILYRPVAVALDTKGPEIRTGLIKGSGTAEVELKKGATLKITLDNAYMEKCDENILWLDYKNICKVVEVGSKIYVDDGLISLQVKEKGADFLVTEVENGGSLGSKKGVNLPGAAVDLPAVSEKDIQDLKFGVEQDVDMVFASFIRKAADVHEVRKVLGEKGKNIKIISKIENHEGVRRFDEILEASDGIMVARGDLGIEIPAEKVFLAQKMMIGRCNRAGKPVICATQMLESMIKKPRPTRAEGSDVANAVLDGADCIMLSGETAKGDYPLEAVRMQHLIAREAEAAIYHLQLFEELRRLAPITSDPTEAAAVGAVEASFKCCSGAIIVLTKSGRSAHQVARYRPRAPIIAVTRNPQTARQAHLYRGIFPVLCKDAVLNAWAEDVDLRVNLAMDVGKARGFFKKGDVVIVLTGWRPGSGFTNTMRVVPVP

T1: SNO-CoA Reductase 2 (SCoR2; product of the Akr1a1 gene) (mouse (endogenous in mouse heart)) (UniProt Q9JII6)
T1 sequence: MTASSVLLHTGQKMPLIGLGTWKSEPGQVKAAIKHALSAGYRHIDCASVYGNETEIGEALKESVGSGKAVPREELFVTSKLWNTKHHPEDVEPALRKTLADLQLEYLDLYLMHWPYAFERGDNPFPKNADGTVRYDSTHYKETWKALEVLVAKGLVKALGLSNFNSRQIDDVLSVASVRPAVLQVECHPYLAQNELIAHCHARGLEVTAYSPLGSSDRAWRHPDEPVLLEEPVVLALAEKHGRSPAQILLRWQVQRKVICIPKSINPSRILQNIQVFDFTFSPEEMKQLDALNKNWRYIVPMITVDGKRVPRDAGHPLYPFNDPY


Target: T1, SNO-CoA Reductase 2 (SCoR2; product of the Akr1a1 gene) (mouse (endogenous in mouse heart))
Assay: affinity purification with mass spectrometry; co-immunoprecipitation with 10 µg anti-SCoR2/AKR1A1 antibody (15054-1-AP, Proteintech) from untreated wild-type mouse heart lysate in non-denaturing lysis buffer (20 mM Tris-HCl pH 8.0, 137 mM NaCl, 1% NP-40, 2 mM EDTA), 2 hr at room temperature, protein A/G magnetic beads, elution with 0.1 M glycine pH 2.0, LC-MS/MS

binding	Molecule
binds	pyruvate kinase M2 (PKM2) (from UniProt P52480 1-531) (enzyme)
binds	β-hydroxybutyrate dehydrogenase (BDH1) (enzyme, UniProt Q80XN0 47-343) ASQADAASGKAILITGCDSGFGFSLAKHLHSKGFLVFAGCLMKDKGDAGVKELDSLKSDRLRTIQLNVCNSEEVEKAVETIRSGLKDPEKGMWGLVNNAGISTFGEVEFTSMETYKEVAEVNLWGTVRTTKSFLPLLRRAKGRVVNISSMLGRMANPARSPYCITKFGIEAFSDCLRYEMHPLGVKVSVVEPGNFIAATSLYSPERIQAIAKKMWDDLPEVVRKDYGRKYFDEKIAKMETYCNSGSTDTSSVINAVTHALTAATPYTRYHPMDYYWWLRMQIMTHFPGAISDKIYIH

No constants are given. Whether binding was seen depends on the method and setting. Binding seen in cells or lysates may run through a third protein. A yes stands for co-enrichment or nearness to the bait. Other partners may have been found.
